From article PMC5334656, “McMYB12 Transcription Factors Co-regulate Proanthocyanidin and Anthocyanin Biosynthesis in Malus Crabapple” come the findings set out here.

A negative result means that nothing was seen under these conditions. At least one verdict rests on a figure or table, not on a statement of the authors. Protein sequences can lack the tags named with them.

Data set [1] addresses T1, McMYB12b (Malus crabapple) (UniProt X2EZI4).
T1 sequence (looked up): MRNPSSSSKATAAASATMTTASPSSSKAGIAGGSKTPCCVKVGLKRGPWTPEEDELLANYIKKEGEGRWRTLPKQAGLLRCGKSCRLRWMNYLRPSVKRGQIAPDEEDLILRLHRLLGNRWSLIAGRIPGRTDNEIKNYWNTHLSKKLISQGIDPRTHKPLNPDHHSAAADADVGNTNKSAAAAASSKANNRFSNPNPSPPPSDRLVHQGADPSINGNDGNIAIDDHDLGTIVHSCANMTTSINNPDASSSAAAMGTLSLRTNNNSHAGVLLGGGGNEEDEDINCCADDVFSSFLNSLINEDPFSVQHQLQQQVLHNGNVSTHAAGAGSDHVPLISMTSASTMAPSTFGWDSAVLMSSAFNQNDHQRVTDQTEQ
In words: competition with a labelled probe. Particulars: 1000-fold mutant probe; LightShift Chemiluminescent EMSA Kit per manufacturer; 10 ug protein, 25 pmol biotin probe, 10- to 1000-fold competitor; pH and temperature not stated; recombinant protein; residues 1-374; label: biotin (text ambiguous). On the technique in general: A gel shift assay detects complexes by their altered migration in electrophoresis.

For data set [2], the target named is T2, McMYB12a (Malus crabapple) (UniProt X2EXK4).
T2 sequence (looked up): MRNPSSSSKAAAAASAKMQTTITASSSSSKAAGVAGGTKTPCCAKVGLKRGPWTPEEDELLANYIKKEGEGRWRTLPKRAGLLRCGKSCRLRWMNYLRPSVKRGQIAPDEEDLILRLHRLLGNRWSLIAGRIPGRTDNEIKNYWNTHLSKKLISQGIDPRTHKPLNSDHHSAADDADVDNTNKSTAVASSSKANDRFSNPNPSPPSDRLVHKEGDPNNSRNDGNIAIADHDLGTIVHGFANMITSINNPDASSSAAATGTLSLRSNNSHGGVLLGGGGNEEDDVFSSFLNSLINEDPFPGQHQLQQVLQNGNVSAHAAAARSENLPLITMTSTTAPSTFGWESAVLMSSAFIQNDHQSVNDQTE
In words: competition with a labelled probe. The note with it: 1000-fold mutant probe; LightShift Chemiluminescent EMSA Kit per manufacturer; 10 ug protein, 25 pmol biotin probe, 10- to 1000-fold competitor; pH and temperature not stated; recombinant protein; residues 1-364; label: biotin (text ambiguous).

Turning to “GGACAGAAATTGTACATACACCCTTTTCGTTAATGTTGCAAACTGAGT (double strand) [proMcLAR1 mutant probe]”, the binding result in data set [1] is “no binding”. With “ATTGGGAGATATGTGCTCGTTTTAGAGTGCTTTTAAAATCAATTAAAAC (double strand) [proMcANR2 mutant probe]”, the binding result in data set [1] and in data set [2] was “no binding” each time. For “GCAACTCCTCCCATCAGTGTGGATCAAGCCACATACCCCGACTATTACT (double strand) [proMcCHS mutant probe]”, the binding result in data set [2] is given as “no binding”.

Take “AGATCATTGCTCCTATTGGCTAAAATTAAGTGACCATTACTATAAT (double strand) [proMcANS mutant probe]”: the binding result in data set [1] and in data set [2] was “no binding” each time. With “AAGTATGGTATAAACACAGACTAAGCCTCATTATCAGATACATATCAT (double strand) [proMcLAR2 mutant probe]”, the binding result in data set [1] and in data set [2] was “no binding” each time. On to “ATTCTGAGTACTGTAGCACAAGTTGAAGTTGAATAATTGACGTCGTC (double strand) [proMcANR1 mutant probe]”, for which the binding result in data set [1] and in data set [2] was “no binding” each time.
